According to PubChem BioAssay AID624291 (National Center for Advancing Translational Sciences (NCATS), 2012):
Hit rate of the full screen: of about 350,000 compounds, about 220 (0.063%) were called active. Inconclusive means that the source gave no clear call. Such entries were picked first, then a sample of the others. The call rests on the fitted dose curve; in most records, active means well fitted activation curve with a large enough effect; inconclusive means small, poorly fitted or top-dose-only effect; inactive means no such curve, though single readings can be large or run the other way. Potencies beside an inconclusive call are fits to weak or partial responses and may not hold up.

Experiment: qHTS for Activators of Integrin-Mediated Alleviation for Muscular Dystrophy; further: nearly all actives have a fitted effect of over 60% in size;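 on activation: 100% = response of the positive control SU9516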
Conditions: alpha7betagal myoblasts, beta-gal FDG fluorescence, 48 h; activation: at 38.3 µM (top of the series)
How it was run: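 Alpha7betagal+/- myoblasts (passage 13) were plated 16-24 hr, then exposed to compounds (1:260 dilution of DMSO stock) for 48 hours at 37C. After MPER lysis, β-galactosidase reporter activity was read as FDG fluorescence (ex 480/em 540) after 30 minutes.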
Potency means the concentration at half of the fitted maximal effect.

| Compound | Potency | activation |
| --- | --- | --- |
| Cc1cc(F)ccc1NC(=O)CCc1c(C)nn(-c2ccc(N3CCCCC3)nn2)c1C | inactive |  |
| COCCN1C2=C(COC(C)(C)C2)C(=S)NC1c1ccccc1 (stereo not drawn) | inconclusive: 28.2 µM [activator, single point] |  |
| Cc1nn(CCC#N)c2[nH]c(=O)cc(C(F)(F)F)c12 | inconclusive: 3.16 µM [activator, single point] |  |
| O=C(N/N=C/c1ccncc1)c1cc([N+](=O)[O-])cc([N+](=O)[O-])c1O | inactive |  |
| Cc1ccc(CNc2ncnc3c2cnn3C2CCCCO2)cc1 (stereo not drawn) | inactive |  |
| CCc1ncc(/C=C2\C(=O)Nc3ccccc32)[nH]1 | inconclusive: 3.55 µM [activator, single point] |  |
| Cc1ccsc1/C=C(\CC(=O)O)c1nc2ccccc2o1 | inactive |  |
| Cc1ccc(S(=O)(=O)NCCSCc2ccco2)cc1 | inconclusive: 28.2 µM [activator, single point] |  |
| COC(=O)c1ccc(CSc2nc3ccc(S(=O)(=O)N4CCOCC4)cc3[nH]2)cc1 | inconclusive: 28.2 µM [activator, single point] |  |
| C/C(=N\Nc1ccc(Cl)c(C(=O)O)c1)c1ccccn1 | inconclusive: 28.2 µM [activator, single point] |  |
| Cc1ccc(OCCNC(=O)c2cccc(S(=O)(=O)NCc3ccccc3)c2)cc1 | inactive |  |
| O=C(COc1ccc(Cl)cc1Br)N1CCN(S(=O)(=O)c2ccccc2)CC1 | inconclusive: 31.6 µM [activator, single point] |  |
| Cc1ccc(NC2CCCN(C(=O)c3ccoc3)C2)cc1C (stereo not drawn) | inconclusive: 5.01 µM [activator, single point] |  |
| COc1ccc(NC(=O)Cn2nnc(-c3ccccc3F)n2)cc1Cl | inactive |  |
| COC(=O)c1cccc(S(=O)(=O)N2CCC(NC(=O)Nc3cccc(F)c3)CC2)c1 | inconclusive: 3.55 µM [activator, full curve, poor fit] |  |
| CCC(C)C(NC(=O)c1ccccc1NC(=O)c1ccco1)C(=O)NNC(=O)c1ccc(OC)cc1 (stereo not drawn) | inconclusive: 5.01 µM [activator, single point] |  |
| CCn1c(C)cc(/C=C2/SC(=S)N(CC(=O)O)C2=O)c1C | inconclusive: 3.16 µM [activator, single point] |  |
| NS(=O)(=O)c1ccc(CNS(=O)(=O)c2ccc3ccccc3c2)cc1 | inconclusive: 5.01 µM [activator, single point] |  |
| O=C(c1cc2cc(Cl)ccc2[nH]1)N1CCCCC1 | inconclusive: 1 µM [activator, partial curve, poor fit] |  |
| CCN(C(=O)COC(=O)CC1CCCCC1)c1c(N)n(Cc2ccccc2)c(=O)[nH]c1=O | inconclusive: 31.6 µM [activator, single point] |  |
| CCCc1cc(=O)[nH]c(SCC(=O)N2CCN(S(=O)(=O)c3ccccc3)CC2)n1 | inconclusive: 28.2 µM [activator, single point] |  |
| Fc1c(F)c(F)c(SCn2cc(Br)cn2)c(F)c1F | inconclusive: 1.12 µM [activator, partial curve, poor fit] |  |
| COC(=O)c1ccc(N=Nc2ccccc2)cc1 | inconclusive: 2 µM [activator, partial curve, poor fit] |  |

| Compound | Potency | activation |
| --- | --- | --- |
| CCCCc1c(C)nn(-c2nnc3c4ccccc4n(C)c3n2)c1C | inconclusive: 2.51 µM [activator, partial curve, poor fit] |  |
| CCCCn1c(N)c(N(CCC(C)C)C(=O)C2=NN(c3ccccc3)C(=O)CC2)c(=O)[nH]c1=O | inactive |  |
| COCCCNC(=O)CC(NS(=O)(=O)c1ccc(Cl)cc1)c1ccco1 (stereo not drawn) | inactive |  |
| CC(C)n1nnnc1-c1cc(Cl)cc(Cl)c1 | inconclusive: 5.01 µM [activator, single point] |  |
| c1cnc2nc(CSc3ncn[nH]3)cn2c1 | inconclusive: 5.01 µM [activator, partial curve, poor fit] |  |
| Cn1c(=O)n(Cc2ccccc2)c2ccccc21 | inactive |  |
| COCCC(=O)N1CCCC(CCC(=O)NCc2ccc(F)c(F)c2)C1 (stereo not drawn) | inconclusive: 2.24 µM [activator, partial curve, poor fit] |  |
| COc1ccc(CNC(=O)Cn2ccc3cc(S(=O)(=O)N4CCCC4)ccc32)cc1OC | inconclusive: 2 µM [activator, partial curve, poor fit] |  |
| CC1(C)C(=O)C2(CCCCC2)C(=O)OC1c1cccc([N+](=O)[O-])c1 (stereo not drawn) | inconclusive: 2.51 µM [activator, partial curve, poor fit] |  |
| CCN1/C(=C/c2cc[n+](CCCS(=O)(=O)[O-])c3ccccc23)Sc2ccccc21 | inactive |  |
| Cc1cccc(-c2cc(C(=O)Nc3ccncc3)c3ccccc3n2)c1 | inconclusive: 5.01 µM [activator, single point] |  |
| Cc1ccc[n+](Cc2ccc([N+](=O)[O-])cc2)c1 | inconclusive: 28.2 µM [activator, single point] |  |
| O=c1c2ccccc2[nH]c(=S)n1Cc1cccnc1 | inactive |  |
| Cc1cccc(CSC2=NCCN2C(=O)c2ccc(S(=O)(=O)N(C)C)cc2)c1 | inactive |  |
| CC1(NC(=S)NCCCCCCNC(=S)NC2(C)CCS(=O)(=O)C2)CCS(=O)(=O)C1 (stereo not drawn) | inconclusive: 2.82 µM [activator, single point] |  |
| O=C(Cn1nnc(-c2ccccc2)n1)NCC(=O)Nc1ccc(F)c(F)c1F | inconclusive: 1.41 µM [activator, partial curve, poor fit] |  |
| O=C(COC(=O)c1cc(Cl)nc2ccccc12)c1ccc(Cl)cc1 | inconclusive: 2.82 µM [activator, single point] |  |
| COC(=O)[C@H](C)NC(=O)Nc1ccccc1C(F)(F)F | inactive |  |
| O=C(O)c1nn(CCOc2c(Cl)cccc2Cl)c(=O)c2ccccc12 | inconclusive: 28.2 µM [activator, single point] |  |
| CC(NC(=O)c1ccccc1Cl)C(=O)OCc1cn2cc(Cl)ccc2n1 (stereo not drawn) | inconclusive: 1.26 µM [activator, partial curve, poor fit] |  |
| CCCCNc1c(-c2ccc(-c3ccc(C(C)=O)cc3)c(OC)c2)nc2cnccn12 | inactive |  |
| N#Cc1cc(-c2ccc(Cl)cc2)cn(Cc2c(Cl)cccc2Cl)c1=O | inconclusive: 5.01 µM [activator, single point] |  |
| O=C(CC1CC2CCC1C2)NC1CCCCCCC1 (stereo not drawn) | inconclusive: 5.01 µM [activator, single point] |  |

Given as comma-separated lines: part of the list above
Compound,Potency,activation
CCCCn1c(N)c(N(CCC(C)C)C(=O)C2=NN(c3ccccc3)C(=O)CC2)c(=O)[nH]c1=O,inactive,
O=c1c2ccccc2[nH]c(=S)n1Cc1cccnc1,inactive,
O=C(CC1CC2CCC1C2)NC1CCCCCCC1 (stereo not drawn),"inconclusive: 5.01 µM [activator, single point]",

(list continues)

| Compound | Potency | activation |
| --- | --- | --- |
| Cc1oc(-c2ccccc2F)nc1CSCC(=O)NC1CCCC1 | inconclusive: 2 µM [activator, partial curve, poor fit] |  |
| CC(C)C(=O)Nc1ccc2c(c1)nc(CCN1CCN(c3ccccn3)CC1)n2C | inactive |  |
| CCCCCN(C(=O)COC(=O)COc1c(C)cc(C)cc1C)c1c(N)n(CCCC)c(=O)[nH]c1=O | inconclusive: 11.2 µM [activator, partial curve] |  |
| Clc1ccc(Cl)c(OCCCCN2CCNCC2)c1 | inactive |  |
| CCCn1nc(C(=O)OCC(=O)Nc2cccc(S(N)(=O)=O)c2)c2ccccc2c1=O | inconclusive: 3.16 µM [activator, full curve, poor fit] |  |
| FC(F)(F)c1nc(N2CCCC2)ncc1-c1nnnn1-c1ccccc1 | inactive |  |
| O=C(COc1ccc(-c2nnco2)cc1)N1CCN(S(=O)(=O)c2ccc3ccccc3c2)CC1 | inactive |  |
| Fc1cc2[nH]c(=S)[nH]c2c(Br)c1N1CCSCC1 | inconclusive: 2.24 µM [activator, single point] |  |
| CC1CCCCC1NC(=O)CCCCCn1c(=S)[nH]c2ccccc2c1=O (stereo not drawn) | inconclusive: 4.47 µM [activator, single point] |  |
| Cc1sc2ncn(CC(=O)N3CCCCC3)c(=O)c2c1S(=O)(=O)N1CCC(C)CC1 | inconclusive: 5.01 µM [activator, single point] |  |
| Cn1c(=NC(=O)c2ccccc2[N+](=O)[O-])sc2cccc(F)c21 | inconclusive: 11.2 µM [activator, single point] |  |
| CCN(C(=O)COC(=O)c1cccnc1Nc1cccc(C(F)(F)F)c1)C1CCS(=O)(=O)C1 (stereo not drawn) | inactive |  |
| COc1ccc2nc(N=NC3=C(O)CC(C)(C)CC3=O)sc2c1 | inactive |  |
| CCCCC[n+]1ccn(-c2nc3ccccc3nc2[N-]S(=O)(=O)c2ccccc2)c1 | inconclusive: 28.2 µM [activator, partial curve, poor fit] |  |
| COc1ccc(C(=O)N2CCNC(=O)C2CC(=O)Nc2cc(Cl)ccc2OC)cc1 (stereo not drawn) | inconclusive: 3.16 µM [activator, single point] |  |
| O=C(c1ccc(F)cc1)c1ccc(-c2ccc(F)cc2)nc1 | inconclusive: 28.2 µM [activator, single point] |  |
| O=S(=O)(NC1CCCCC1Nc1ccccc1)c1ccccc1 (stereo not drawn) |  | inconclusive: -48.9% [activator] |
| Cn1ncc([N+](=O)[O-])c1C(=O)Nc1ccc(-c2nc3ccccc3o2)cc1 | inconclusive: 5.62 µM [activator, partial curve, poor fit] |  |
| CC1(C)CC(=O)c2c(oc3ccc(NS(=O)(=O)c4ccc(C(=O)O)cc4)cc23)C1 | inconclusive: 28.2 µM [activator, single point] |  |
| O=C(Nc1ccc(Cl)cc1C(=O)NCCN1CCOCC1)c1ccco1 | inconclusive: 28.2 µM [activator, single point] |  |
| N#Cc1ccc(NC(=O)Nc2ccc(Oc3ccc(NC(=O)Nc4ccc(C#N)cc4)cc3)cc2)cc1 | inactive |  |
| COc1ccnc(CN(C)C(=O)C2CCC(=O)N(Cc3cccc(C(F)(F)F)c3)C2)c1 (stereo not drawn) | inconclusive: 1.26 µM [activator, partial curve, poor fit] |  |
